This note sets out measurements from patent EP1227812B1, “TOPICAL NASAL TREATMENT USING DESLORATADINE AND MOMETASONE FUROATE” (SCHERING CORPORATION, priority 1999, dated 2001).

Structures are written as SMILES. Where two headings read alike, the source gives them in different places.

For this assay, the system named is histamine-induced vascular permeability increases in nasal mucosa. The note with it: for % Inhibition: percent inhibition of vasopermeability vs vehicle, mean, 10 min before 1 mM histamine perfusion.

As for `Clc1ccc2c(c1)CCc1cccnc1C2=C1CCNCC1` [Desloratadine, desloratadine], under “comparison of desloratadine with loratadine”, the “activity in this test relative to loratadine” value is “approximately an order of magnitude more active”. Further, the % Inhibition (commonly the share of the control response that was lost under treatment) (dose 0.1 µg instilled into the nares) is 0%; the “% Inhibition” value (dose 0.3 µg instilled into the nares) was 36%; the “% Inhibition” value (dose 1 µg instilled into the nares) is listed as 50%; the “% Inhibition” value (dose 3 µg instilled into the nares) was 69%; the “% Inhibition” value (dose 10 µg instilled into the nares) was found to be 56%.
